From publication PMC12208539 come the findings set out here.

The chains behind the UniProt entries cited, without tags or fusion partners.
UniProt P02340: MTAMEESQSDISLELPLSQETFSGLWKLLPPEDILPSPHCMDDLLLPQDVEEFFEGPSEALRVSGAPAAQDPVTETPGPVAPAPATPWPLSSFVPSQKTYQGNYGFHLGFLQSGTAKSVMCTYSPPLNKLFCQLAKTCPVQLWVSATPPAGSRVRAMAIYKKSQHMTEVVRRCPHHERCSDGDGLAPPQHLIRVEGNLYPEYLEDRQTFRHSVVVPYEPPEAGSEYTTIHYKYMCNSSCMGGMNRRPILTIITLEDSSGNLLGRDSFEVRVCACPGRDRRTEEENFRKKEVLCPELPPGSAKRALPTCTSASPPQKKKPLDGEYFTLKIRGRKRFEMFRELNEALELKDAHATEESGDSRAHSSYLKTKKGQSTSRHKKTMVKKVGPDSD

These are yes or no findings as the source states them, for the method shown. Binding seen in cells or lysates may run through a third protein. Some binding calls cover weakened binding; strength is not graded here.

This assay addresses T1, Ppil2, endogenous in mouse erythroid cells (mouse (endogenous in bone marrow Ter119+ cells)) (UniProt Q9D787).
T1 sequence: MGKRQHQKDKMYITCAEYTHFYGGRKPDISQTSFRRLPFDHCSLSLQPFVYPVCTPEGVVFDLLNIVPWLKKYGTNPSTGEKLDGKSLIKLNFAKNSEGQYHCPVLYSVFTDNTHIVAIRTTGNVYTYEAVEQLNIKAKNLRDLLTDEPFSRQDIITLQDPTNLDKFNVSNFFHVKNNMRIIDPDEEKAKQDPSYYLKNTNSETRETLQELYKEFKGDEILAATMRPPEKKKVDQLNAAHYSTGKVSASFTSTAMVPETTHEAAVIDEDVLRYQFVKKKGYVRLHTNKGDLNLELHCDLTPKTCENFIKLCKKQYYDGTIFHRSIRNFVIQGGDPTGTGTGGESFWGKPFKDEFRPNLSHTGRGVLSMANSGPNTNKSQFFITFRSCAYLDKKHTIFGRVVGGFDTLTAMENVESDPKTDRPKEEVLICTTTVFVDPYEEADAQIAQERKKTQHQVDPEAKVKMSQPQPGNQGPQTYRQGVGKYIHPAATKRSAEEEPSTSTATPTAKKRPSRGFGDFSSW
Put plainly: co-IP; endogenous IP: PPIL2 antibody or IgG with 1 mg lysate of mouse bone marrow Ter119+ cells, 4°C overnight, protein A/G beads; Western blotting. (A western blot detects proteins with antibodies after separation by electrophoresis.)

As for “p53, endogenous in mouse erythroid cells (from UniProt P02340 1-390)”, the binding result is on record as “binds”.
